{"source": "PubChem BioAssay AID1487", "about": "(National Center for Advancing Translational Sciences (NCATS), 2009)", "note": "The campaign covered roughly 200,000 compounds. About 25 (0.01%) were called active. This list was built around the results that the source calls inconclusive (neither active nor inactive); the mix of calls is not that of the screen. Calls follow the shape of the dose curve; as a rule, active = well fitted inhibition curve with a large enough effect in the signal ratio, with a control signal flat (not every such curve was filed as active); inconclusive = small, poorly fitted or top-dose-only effect, or effect the other way, or a change in a side signal; inactive = flat fitted curve, though single readings scatter; the % refers to the signal ratio. A potency beside an inconclusive call is a rough fit, not a confirmed value. % is scaled to controls: 0 for no effect and ±100 for the full control effect; potency is read from the fitted curve at half-maximal effect."}
{"assay": "qHTS Assay for Modulators of Lamin A Splicing", "conditions": "HeLa LMNA splicing GFP/RFP minigene ratio, 48 h; ratio change, negative = inhibition: at 46.1 µM (top of the series) unless noted", "method_in_brief": "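Read-out is the ratio of GFP to DsRed2 object intensity, acquired by 488 nm laser-scanning cytometry on HeLa lamin A-EGFP minigene reporter cells. Compound incubation 48 hrs at 37 °C in Opti-MEM with 2% FBS; DMSO 0.5% final.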"}
{"smiles": "O=c1[nH]c2cc(Cl)c(Cl)cc2[nH]c1=O", "Potency": "inconclusive: 11.2 µM [cytotoxic, partial curve]"}
{"smiles": "CC1=CC(C)(C)NC(=S)N1c1ccccc1C", "ratio change, negative = inhibition": "inconclusive: 6.23% [at 46 µM]"}
{"smiles": "Cc1nn(-c2ccccc2)c2ncc(C(=O)c3cc(Cl)ccc3O)cc12", "Potency": "inconclusive: 35.5 µM [fluorescent, single point]"}
{"smiles": "O=C(c1cc2ccc3cccnc3c2[nH]1)N1CCN(c2cccc(C(F)(F)F)c2)CC1", "ratio change, negative = inhibition": "inactive"}
{"smiles": "CCOC(=O)N1CCN(S(=O)(=O)c2ccc(OCC(=O)OC)c(C)c2)CC1", "ratio change, negative = inhibition": "inactive"}
{"smiles": "Cc1ccc(/C=C2\\SC(N)=NC2=O)s1", "ratio change, negative = inhibition": "inactive"}
{"smiles": "CCOc1ccc(CNC(=O)c2ccc3c(c2)nc2n3CCOC2)cc1", "ratio change, negative = inhibition": "inconclusive: 5.27% [at 46 µM]"}
{"smiles": "COc1ccc(Cl)cc1-n1c(N)c(C(N)=O)sc1=S", "ratio change, negative = inhibition": "inactive"}
{"smiles": "O=C(c1csc(Nc2ccccc2Cl)n1)N1CCCC1", "ratio change, negative = inhibition": "inactive"}
{"smiles": "O=C1CC(NC(=O)C(F)(F)F)c2cc3c(cc21)OCO3", "note": "(stereo not drawn)", "ratio change, negative = inhibition": "inconclusive: -4.59% [at 46 µM]"}
{"smiles": "COc1ccc(NC(=O)Cn2c(=O)n(CC3CCCO3)c(=O)c3ccccc32)c(OC)c1", "note": "(stereo not drawn)", "ratio change, negative = inhibition": "inconclusive: -8.3% [at 46 µM]"}
{"smiles": "COc1ccc(CN2CCNC(=O)C2CC(=O)NCCCn2cccn2)c(OC)c1", "note": "(stereo not drawn)", "ratio change, negative = inhibition": "inactive"}
{"smiles": "CN(Cc1ccccc1)C(=O)C1CCCN(Cc2ccc(Cl)cc2)C1", "note": "(stereo not drawn)", "ratio change, negative = inhibition": "inconclusive: 26.4%"}
{"smiles": "O=C(COC(=O)Cc1ccc(Cl)cc1)Nc1c(F)cccc1F", "ratio change, negative = inhibition": "inconclusive: -13.8% [at 46 µM]"}
{"smiles": "CC(C)(C)OC(=O)N1CCC(c2c(C(=O)NCc3ccco3)cnn2-c2ccccc2)CC1", "ratio change, negative = inhibition": "inactive"}
{"smiles": "Cc1cc(NC(=O)NCc2ccc3c(c2)CCN3C(=O)c2ccccc2)ccc1Br", "ratio change, negative = inhibition": "inconclusive: -10.5% [at 46 µM]"}
{"smiles": "O=C(NCc1ccncc1)C(=O)N/N=C/c1ccccc1OCc1ccccc1", "ratio change, negative = inhibition": "inconclusive: 35.8% [at 46 µM]"}
{"smiles": "O=C(CSc1nnc(-c2ccccc2)o1)NCC1CCCCC1", "ratio change, negative = inhibition": "inconclusive: 8.66%"}
{"smiles": "CCOc1ccc(C(C)=O)cc1N1C(=O)C2C3C=CC(C3)C2C1=O", "note": "(stereo not drawn)", "ratio change, negative = inhibition": "inactive"}
{"smiles": "O=c1cc(CN2CCN(c3cccc(Cl)c3)CC2)c2cc(O)c(-c3ccccc3)cc2o1", "ratio change, negative = inhibition": "inconclusive: -0.167%"}
{"smiles": "CCOc1ccc(NC(=O)c2c(NCc3sccc3C)sc3c2CCCCC3)cc1", "Potency": "inconclusive: 35.5 µM [fluorescent, single point]"}
{"smiles": "COc1cccc(-c2nc(CS(=O)(=O)CC(=O)Nc3cc(C)ccc3C)c(C)o2)c1", "ratio change, negative = inhibition": "inactive"}
{"smiles": "CSc1nc2ccccc2n1Cc1cccc(F)c1", "ratio change, negative = inhibition": "inconclusive: 32%"}
{"smiles": "CC(NC(=S)NCCN1CCOCC1)C12CC3CC(CC(C3)C1)C2", "note": "(stereo not drawn)", "ratio change, negative = inhibition": "inactive: 2.52% [at 9.22 µM]"}
{"smiles": "O=C(CC1S/C(=N/N=C/c2c[nH]c3ccccc23)NC1=O)Nc1ccccc1", "note": "(stereo not drawn)", "ratio change, negative = inhibition": "inconclusive: 4.9%"}
{"smiles": "O=c1c2cc(N3CCOCC3)ccc2[nH]c(=S)n1Cc1ccco1", "ratio change, negative = inhibition": "inactive"}
{"smiles": "CC1CCCC(NC(=S)NC(=O)c2ccccc2Br)C1C", "note": "(stereo not drawn)", "ratio change, negative = inhibition": "inconclusive: -24.5%"}
{"smiles": "COc1ccc2cc(C#N)c(SCC(=O)NNC(=O)Cc3ccccc3)nc2c1", "Potency": "inconclusive: 35.5 µM [rising, single point]"}
{"smiles": "Fc1ccc(CSc2nnc3ccc(-c4ccncc4)nn23)cc1", "ratio change, negative = inhibition": "inconclusive: 11.8% [at 46 µM]"}
{"smiles": "COc1ccc(CNC(=O)c2cc3cc(S(=O)(=O)N4CCCCC4)ccc3n2C)c(OC)c1", "ratio change, negative = inhibition": "inconclusive: -1.67% [at 46 µM]"}
{"smiles": "COc1ccc(NS(=O)(=O)c2cc3c(cc2C)NC(=O)CO3)c(OC)c1", "ratio change, negative = inhibition": "inconclusive: 29.3% [at 46 µM]"}
{"smiles": "CC(C)CN(CC(C)C)c1nnc(NC(=O)Cn2c(=O)oc3ccccc32)s1", "ratio change, negative = inhibition": "inactive"}
{"smiles": "CC(C)c1cnc2c(c1SCc1cccc(F)c1)c(=O)n(C)c(=O)n2C", "ratio change, negative = inhibition": "inconclusive: 23.4% [at 46 µM]"}
{"smiles": "CN(C)Cc1ccccc1-c1nc(NCc2cccs2)c2ccccc2n1", "ratio change, negative = inhibition": "inconclusive: -15.3%"}
{"smiles": "O=C(CN1CCOCC1)Nc1c(C(=O)C2CC2)oc2ccccc12", "ratio change, negative = inhibition": "inconclusive: 6.02% [at 46 µM]"}
{"smiles": "CC(C)N1C(=O)CC(Nc2cccc3cccc(N)c23)C1=O", "note": "(stereo not drawn)", "ratio change, negative = inhibition": "inconclusive: -31.2% [at 46 µM]"}
{"smiles": "O=C(Cc1ccccc1)NN1C(=O)C2C3C=CC(C3)[C@@H]2C1=O", "note": "(stereo partly drawn)", "ratio change, negative = inhibition": "inconclusive: -2.78%"}
{"smiles": "COc1cccc(NC(=O)CSC2=C(C#N)C(c3ccco3)C3=C(CCCC3=O)N2)c1", "note": "(stereo not drawn)", "ratio change, negative = inhibition": "inconclusive: -33.7%"}
{"smiles": "CC1CCN(c2oc(-c3ccc(COc4ccccc4)o3)nc2C#N)CC1", "ratio change, negative = inhibition": "inconclusive: 24% [at 46 µM]"}
{"smiles": "CCc1nc(C)cn1S(=O)(=O)c1cc(C)c(OC)c(C)c1C", "Potency": "inconclusive: 6.31 µM [falling, partial curve]"}
{"smiles": "O=C(Nc1cccnc1)C1CCN(S(=O)(=O)c2cccs2)CC1", "ratio change, negative = inhibition": "inconclusive: -4.46% [at 46 µM]"}
{"smiles": "Cc1ccc(C(=O)Nc2ccc(C(=O)N/N=C/c3ccncc3)cc2)cc1", "ratio change, negative = inhibition": "inconclusive: 5.48% [at 46 µM]"}
{"smiles": "COc1ccc(N/C(C)=C/C(=O)c2ccccc2)cc1", "ratio change, negative = inhibition": "inactive"}
{"smiles": "Cc1ccc(CCC2C3=C(CCCC3=O)OC3=C2C(=O)CCC3)cc1", "ratio change, negative = inhibition": "inconclusive: 11.7%"}
{"smiles": "COc1ccc(NC(=O)C(c2ccccc2)c2ccccc2)cn1", "ratio change, negative = inhibition": "inconclusive: -21.8% [at 46 µM]"}
{"smiles": "O=C(NCc1ccccc1)C1CCC1", "ratio change, negative = inhibition": "inactive"}
{"smiles": "Cc1nc(-c2ccc(S(=O)(=O)N3CCCCCC3)cc2)cs1", "Potency": "inconclusive: 14.1 µM [falling, single point]"}
{"smiles": "COc1cccc(CN2CCN(S(=O)(=O)c3ccc(Br)cc3)CC2)c1", "Potency": "inconclusive: 14.1 µM [falling, single point]"}
{"smiles": "C/C(=N\\NC(=O)C(=O)Nc1cc(Cl)ccc1Cl)c1ccncc1", "ratio change, negative = inhibition": "inconclusive: 5.17%"}
{"smiles": "COc1ccc(CNc2cc(-c3ccoc3)ncn2)c(OC)c1", "ratio change, negative = inhibition": "inconclusive: -13.7%"}
{"smiles": "CCCCCNC(=O)c1ccc2c(c1)nc(C)n2-c1cccc(C)c1", "ratio change, negative = inhibition": "inconclusive: -21.9% [at 46 µM]"}
{"smiles": "CCOC(=O)c1[nH]c(C)c(C(=O)NCCC2=CCCCC2)c1C", "ratio change, negative = inhibition": "inconclusive: 8.17%"}
{"smiles": "COc1ccc(-c2cc(=O)oc3cc(OC(=O)C4CCCCC4)c(Cl)cc23)cc1", "ratio change, negative = inhibition": "inconclusive: -47%"}
{"smiles": "COc1cccc2c1Oc1ncccc1N(C(=O)Nc1cccc(Cl)c1)C2", "ratio change, negative = inhibition": "inactive"}
{"smiles": "CCOC(=O)C(=O)Nc1nnc(CCc2ccccc2)s1", "ratio change, negative = inhibition": "inactive"}
{"smiles": "Nc1ccc(Cc2nc3cc4ccccc4cc3[nH]2)cc1", "Potency": "inconclusive: 7.08 µM [inhibitor, partial curve]"}
{"smiles": "CCCCCCCCNC(C)C(O)c1ccc(SC(C)C)cc1", "note": "(stereo not drawn)", "Potency": "inconclusive: 35.5 µM [cytotoxic, partial curve]"}
{"smiles": "CCOc1ccccc1NC(=O)CN1c2ccccc2S(=O)(=O)c2ccccc21", "ratio change, negative = inhibition": "inconclusive: -11.4% [at 46 µM]"}
{"smiles": "Cc1ccc(CNC(=O)c2cc(S(=O)(=O)N3CCCCCC3)cn2C)cc1", "ratio change, negative = inhibition": "inconclusive: 14.3% [at 46 µM]"}
{"smiles": "Cc1ccn2c(c1)nc(=S)n2C(=O)c1ccccc1", "ratio change, negative = inhibition": "inconclusive: 0.93%"}
{"smiles": "C=CCN1C(c2ccc(OCC)cc2)=CS/C1=C(\\C#N)c1nnc2n1CCCCC2", "Potency": "inconclusive: 31.6 µM [falling, single point]"}
{"smiles": "COc1ccc(C(C)=O)cc1CN1C(=O)C(C)N(c2ccc(C)cc2)C1=O", "note": "(stereo not drawn)", "ratio change, negative = inhibition": "inconclusive: -8.84%"}
{"smiles": "O=c1[nH][nH]c(-c2ccccc2)c1C=Nc1ccccc1", "ratio change, negative = inhibition": "inconclusive: 21.3%"}
{"smiles": "Cc1nn(CC(=O)Nc2ccc3c(c2)nc(CCN2CCCCC2)n3C)c(=O)c2ccccc12", "ratio change, negative = inhibition": "inconclusive: -44.1%"}
{"smiles": "CCNc1ccc(S(=O)(=O)N(C)C)cc1NCC(=O)Nc1ccccc1Br", "ratio change, negative = inhibition": "inactive"}
{"smiles": "Cc1cc(C)nc(SCCS(=O)(=O)Cc2ccccc2)n1", "ratio change, negative = inhibition": "inactive"}
{"smiles": "CCNc1nc(SCCOc2ccc(C)cc2)nc(N(C)C)n1", "Potency": "inconclusive: 35.5 µM [fluorescent, single point]"}
{"smiles": "Cc1nn(CCC(=O)N2CCN(c3ccccc3)CC2)c(C)c1S(=O)(=O)N1CCCC1", "ratio change, negative = inhibition": "inactive"}
{"smiles": "COCCCn1c(SCC(=O)N2CCCCC2C)nnc1-c1ccco1", "note": "(stereo not drawn)", "ratio change, negative = inhibition": "inactive"}
{"smiles": "O=C(COC(=O)Cc1ccsc1)Nc1ccc(Cl)c(S(=O)(=O)N2CCOCC2)c1", "ratio change, negative = inhibition": "inactive"}
{"smiles": "CCCCn1c(NC(=O)c2ccc(Br)o2)c(S(=O)(=O)c2ccccc2)c2nc3ccccc3nc21", "ratio change, negative = inhibition": "inactive"}
{"smiles": "O=C(COC(=O)[C@H](Cc1ccccc1)NC(=O)c1ccco1)NC(c1ccccc1)c1ccccc1", "ratio change, negative = inhibition": "inactive"}
{"smiles": "COCCNCCCOc1ccc(C(C)(C)c2ccccc2)cc1", "ratio change, negative = inhibition": "inactive"}
{"smiles": "O=C(Nc1ccc(F)cc1Cl)C1Cc2ccccc2N1C(=O)c1ccccc1", "note": "(stereo not drawn)", "ratio change, negative = inhibition": "inconclusive: 5.26% [at 46 µM]"}
{"smiles": "O=C(CN1C(=O)c2ccccc2C1=O)Nc1ccccc1N1CCOCC1", "ratio change, negative = inhibition": "inactive"}
{"smiles": "COc1ccccc1OCC(=O)/C=C1/N(C)c2ccccc2C1(C)C", "ratio change, negative = inhibition": "inactive"}
{"smiles": "COCCCNS(=O)(=O)c1ccc(SC)cc1", "ratio change, negative = inhibition": "inconclusive: 1.55%"}
{"smiles": "Cc1ccccc1C(=O)NCC(=O)O", "ratio change, negative = inhibition": "inconclusive: 17% [at 46 µM]"}
{"smiles": "C=CCN1c2ccccc2[C@]23C[C@@H](C(=O)OC)N(S(=O)(=O)CCCC)C2=NC(C(=O)OC)=C(C(=O)OC)[C@H]13", "ratio change, negative = inhibition": "inconclusive: -3.42% [at 9.22 µM]"}
{"smiles": "COc1ccc(CNc2ncnc3ccc(-c4ccc5c(c4)OCO5)cc23)c(OC)c1", "ratio change, negative = inhibition": "inconclusive: -27.8%"}
{"smiles": "N#CCSc1nc2sc3c(c2c(=O)n1C1CCCCC1)CCCC3", "ratio change, negative = inhibition": "inconclusive: 11.8%"}
{"smiles": "O=C(c1ccc(S(=O)(=O)Cc2cc(F)ccc2F)c([N+](=O)[O-])c1)N1CCCCC1", "ratio change, negative = inhibition": "inconclusive: -36%"}
